Test results as given in PubChem BioAssay AID504444 (National Center for Advancing Translational Sciences (NCATS), 2011).
About 7,500 (2.1%) of roughly 360,000 compounds were called active. This list was built around the results that the source calls inconclusive (neither active nor inactive); the mix of calls is not that of the screen. Calls follow the shape of the dose curve; as a rule, active = well fitted inhibition curve with a large enough effect; inconclusive = small, poorly fitted or top-dose-only effect, or effect the other way; inactive = flat fitted curve, though single readings scatter. Potencies beside an inconclusive call are fits to weak or partial responses and may not hold up.

Experiment: Nrf2 qHTS screen for inhibitors; also: nearly all actives have a fitted effect of over 60% in size
Details: A549 ARE-Fluc reporter, luciferase luminescence, 18-24 h; series mostly up to 46 µM
Procedure, shortened: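 In this cell-based qHTS, ARE-driven firefly luciferase in A549 cells reports Nrf2 activity; the luminescent signal after BugLite lysis is the measured value, with a prior CellTiter-Fluor read for cell health.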
Potency is read from the fitted curve at half-maximal effect.

Row | SMILES | Potency
1 | Cc1cc(OC(=O)N(C)C)nc(SCc2c(Cl)cccc2Cl)n1 | inconclusive: 8.2 µM [falling, partial curve, poor fit]
2 | O=C1NC(=O)C(=Cc2ccccc2Oc2ccc(F)cc2)C(=O)N1 | inactive
3 | COC(=O)C1=C(c2ccc(OC(F)(F)F)cc2)C[C@@H]2CC[C@H]1N2C(=O)NCc1ccc(F)cc1 | inconclusive: 29.1 µM [falling, single point]
4 | COc1cc(/C=C2\C(=O)NC(=O)N(c3ccccc3)C2=O)cc(OC)c1OC | inactive
5 | COc1ccc(CN2C(=O)CC(=O)NC2=S)cc1 | inactive
6 | Cc1ccc(C2CC(=O)C(C=NCCN3CCN(C(=O)Cc4ccccc4)CC3)=C(O)C2)cc1 (stereo not drawn) | inactive
7 | CN1CCN(c2cccc3c2C(=O)c2ccccc2C3=O)CC1 | inactive
8 | Cc1[nH]n(-c2ccccc2)c(=O)c1C(c1ccc([N+](=O)[O-])cc1)c1c(C)[nH]n(-c2ccccc2)c1=O | inactive
9 | Cc1ccccc1N1CCN(S(=O)(=O)c2nnc(NC(=O)c3ccc(Cl)cc3)s2)CC1 | inconclusive: 1.64 µM [activator, partial curve]
10 | Cn1c(=O)c(Oc2ccc(F)cc2)c(O)c2ccccc21 | inconclusive: 3.26 µM [activator, single point]
11 | NC(=O)c1ccc(N)nc1 | inconclusive: 20.6 µM [falling, partial curve, poor fit]
12 | CN1C(=O)C(=Cc2ccccc2OS(=O)(=O)c2ccccc2)C(=O)N(C)C1=O | inactive
13 | O=C1NC(=O)C(=Cc2ccc(-c3ccc(S(=O)(=O)N4CCOCC4)cc3)o2)C(=O)N1 | inactive
14 | CC(=O)OC(C)(C)/C=C/C(=O)[C@](C)(O)C1[C@H](O)C[C@@]2(C)C3CC=C4C(C[C@H](O)C(=O)C4(C)C)[C@]3(C)C(=O)C[C@]12C (stereo partly drawn) | inconclusive: 9.2 µM [falling, partial curve, poor fit]
15 | O=[N+]([O-])c1cccc2c([N+](=O)[O-])cccc12 | inactive
16 | CCOc1ccc(-c2cc(C)n3nc(C(=O)Nc4ccc(C)c(C)c4)cc3n2)cc1 | inconclusive: 20.6 µM [falling, single point]
17 | COc1ccc(CN2CCN(C(=O)COc3ccc4ccccc4c3)CC2)c(OC)c1 | inconclusive: 32.6 µM [falling, partial curve, poor fit]
18 | c1ccc(/N=C2\N=C(Nc3ccccn3)c3ccccc32)nc1 | inconclusive: 9.2 µM [falling, partial curve]
19 | Cc1cccc(N2CCN(C(=O)CCS(=O)(=O)c3ccc4c(c3)oc(=O)n4C)CC2)c1C | inconclusive: 14.6 µM [falling, partial curve, poor fit]
20 | Cc1cc(C)cc(N2C(=O)NC(=O)/C(=C/c3cccn3-c3ccc(Cl)cc3)C2=O)c1 | inconclusive: 25.9 µM [activator, single point]
21 | CC(C)[C@H]1C(=O)O[C@@H]2CCN3CC=C(COC(=O)[C@](C)(O)[C@]1(C)O)[C@H]23 | inactive
22 | CNC(=O)CSc1nnc(-c2cc(C)cc(C)c2)o1 | inconclusive: 0.0058 µM [falling, full curve, poor fit]

Row | SMILES | Potency
23 | CCc1ccc(OCC(=O)N2CCN(CC(=O)Nc3ccccc3Cl)CC2)cc1 | inactive
24 | CNc1ccc2nc3ccccc3[n+](C)c2c1 | active: 6.51 µM
25 | CCOc1cc(C2NCc3ccccc3-n3cccc32)ccc1O (stereo not drawn) | inconclusive: 6.51 µM [activator, partial curve, poor fit]
26 | CCC(=NC(C)c1ccccc1)c1c(O)n(C)c(=O)n(C)c1=O (stereo not drawn) | active: 5.8 µM
27 | N#CC(C#N)=Cc1ccc(O)c(O)c1 | inactive
28 | CC(C)[C@H]1C(=O)N2CCC[C@H]2[C@]2(O)O[C@](NC(=O)[C@@H]3C=C4c5cccc6[nH]cc(c56)C[C@H]4N(C)C3)(C(C)C)C(=O)N12 | inconclusive: 14.6 µM [falling, partial curve]
29 | Cc1ccc(N2CCN(C(=O)C3CCC(CNS(=O)(=O)c4ccc(Br)s4)CC3)CC2C)cc1 (stereo not drawn) | active: 9.2 µM
30 | Cc1nc2cc(F)ccc2n1C1CCN(Cc2nnnn2CCc2ccccc2)CC1 | inconclusive: 8.2 µM [falling, partial curve, poor fit]
31 | CCCCCCC(=O)N/N=C/c1c(O)n(CCc2ccccc2)c(=O)[nH]c1=O | inconclusive: 23.1 µM [falling, single point]
32 | Cc1ccc(-c2nc3ccc(Cl)cn3c2Nc2ccccc2C)s1 | inconclusive: 11.6 µM [falling, partial curve, poor fit]
33 | Cc1cccc(-n2c(C)nc3ccccc3c2=O)c1C | inconclusive: 7.31 µM [falling, partial curve]
34 | Cc1cccc(Cn2c(SCc3ccc(C(=O)NC4CCCCC4)cc3)nc3cccnc32)c1 | inconclusive: 29.1 µM [falling, single point]
35 | Cc1ccc(C(=O)N2CC2C)cc1 (stereo not drawn) | inactive
36 | COc1cccc(CN2CCC(n3nccc3NC(=O)CCOc3ccccc3)CC2)c1O | inconclusive: 0.0731 µM [falling, full curve]
37 | COC(=O)C1=C(c2ccc3ccccc3c2)C[C@@H]2CC[C@H]1N2C(=O)NC1CCCCC1 | inconclusive: 20.6 µM [falling, single point]
38 | O=C(CNC(=O)c1ccccc1)Nc1ccc(Br)cc1C(=O)c1ccccc1 | inconclusive: 9.2 µM [falling, partial curve, poor fit]
39 | CCNC(=O)NC(=O)C(C)OC(=O)c1c(C)nn(Cc2ccccc2Cl)c1Cl (stereo not drawn) | inconclusive: 29.1 µM [falling, single point]
40 | CCN1CCN(c2ccc([N+](=O)[O-])cc2C#N)CC1 | inconclusive: 25.9 µM [activator, partial curve, poor fit]
41 | CSc1ncc(/C=C2/C(=O)NC(=O)N(c3ccc(Cl)cc3)C2=O)cn1 | inconclusive: 29.1 µM [activator, partial curve, poor fit]
42 | COP(=O)(OC)Oc1ccc(C(O)C(Cl)(Cl)Cl)cc1 (stereo not drawn) | inactive
43 | Cn1cnc2cc(NC(=O)c3ccc(Cl)cc3)ccc21 | inconclusive: 0.82 µM [activator, full curve, poor fit]

Given comma-delimited: part of the list above.
Row,SMILES,Potency
26,CCC(=NC(C)c1ccccc1)c1c(O)n(C)c(=O)n(C)c1=O (stereo not drawn),active: 5.8 µM
27,N#CC(C#N)=Cc1ccc(O)c(O)c1,inactive
28,CC(C)[C@H]1C(=O)N2CCC[C@H]2[C@]2(O)O[C@](NC(=O)[C@@H]3C=C4c5cccc6[nH]cc(c56)C[C@H]4N(C)C3)(C(C)C)C(=O)N12,"inconclusive: 14.6 µM [falling, partial curve]"
29,Cc1ccc(N2CCN(C(=O)C3CCC(CNS(=O)(=O)c4ccc(Br)s4)CC3)CC2C)cc1 (stereo not drawn),active: 9.2 µM
30,Cc1nc2cc(F)ccc2n1C1CCN(Cc2nnnn2CCc2ccccc2)CC1,"inconclusive: 8.2 µM [falling, partial curve, poor fit]"
31,CCCCCCC(=O)N/N=C/c1c(O)n(CCc2ccccc2)c(=O)[nH]c1=O,"inconclusive: 23.1 µM [falling, single point]"
32,Cc1ccc(-c2nc3ccc(Cl)cn3c2Nc2ccccc2C)s1,"inconclusive: 11.6 µM [falling, partial curve, poor fit]"
33,Cc1cccc(-n2c(C)nc3ccccc3c2=O)c1C,"inconclusive: 7.31 µM [falling, partial curve]"
